The nature of the series: peptide synthesis. The following applies: late stage modification step, HPLC vs internal standard S4, 300 nm.

Turning to Ac-MGDFQ NH2, the step yield worked out at 51%.

Source of the values: paper PMC9728511 (Chemical Science, 2022).
